The values below come from paper PMC7819943, “Rice protein-binding microarrays: a tool to detect cis-acting elements near promoter regions in rice”.

Chains of the proteins cited; added tags and fusions are not shown.
UniProt Q0JBA9, entry or part of it: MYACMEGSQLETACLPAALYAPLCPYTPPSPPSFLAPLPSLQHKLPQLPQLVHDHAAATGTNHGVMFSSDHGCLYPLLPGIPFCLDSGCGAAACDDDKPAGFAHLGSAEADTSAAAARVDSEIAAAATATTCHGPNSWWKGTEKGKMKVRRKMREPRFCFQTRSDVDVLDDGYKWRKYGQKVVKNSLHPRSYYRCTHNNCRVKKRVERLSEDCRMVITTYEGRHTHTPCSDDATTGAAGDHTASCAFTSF

This is one part of the list.

For this assay, the target named is OsWRKY34 (Oryza sativa, UniProt Q0JBA9 1-250). As to the kind of experiment: protein-binding microarray (RPBM); PBS, 2% BSA, 51.3 ng/ul salmon testes DNA, 50 uM zinc acetate, 200 nM TF, 25 C, 1 h; high values mean tight binding. The conditions noted are these: protein: recombinant; tags: N-terminal polyhistidine and DsRed monomer fusion (pET32a); label: CyDye5-dUTP incorporated in the synthesized complementary strand; 3' TTTTT single-stranded linker to array surface; dsDNA, one strand shown. A digest of the protocol: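 Binding signal is reported as fluorescence intensity per feature (arbitrary units) from an Axon 4000B scanner. Incubation used 200 nM of each Ni–NTA-purified, N-terminally polyhistidine- and DsRed-fused transcription factor from E. coli BL21-CodonPlus on a double-stranded custom Agilent array for 1 h at 25 °C, with 50 µM zinc acetate in the buffer, followed by washing.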
“CATCTGCACTTGATTTCTTATTCACGCAACTCCATTAAAGCGGAGTCACCTAGTGCAG”: the binding signal was 9760 fluorescence intensity (a.u.).
Regarding “GGACGCTTTTCGCCTTGTTGGTGCACTGTCCCCTTCGTCTCGGAGTCACCTAGTGCAG”, the binding signal is 8060 fluorescence intensity (a.u.).
For “CTATCATAATATTTGACCTAGACATTTTTTTTTCCTTCAACGGAGTCACCTAGTGCAG”, the binding signal was 8390 fluorescence intensity (a.u.).
On to “AAATATGTACTGCTGGTGGTTCTGTGTTTCCTCTGTTTGACGGAGTCACCTAGTGCAG”, for which the binding signal is 11800 fluorescence intensity (a.u.).
For “ACTTACTGTACCTGCATAAATACATAAACACATACCATATCGGAGTCACCTAGTGCAG”, the binding signal is 8750 fluorescence intensity (a.u.).
“AGTGTGTGCGTGGTATGAGCGCTTGTGTTTTTTTACCTTTCGGAGTCACCTAGTGCAG”: the binding signal is 8800 fluorescence intensity (a.u.).
As to “TCTGCGCGGACTGGACCACCATGCTAGTTTACTCTATTTTCGGAGTCACCTAGTGCAG”, the binding signal is 8080 fluorescence intensity (a.u.).
As to “CTTGGCTTGGTTTGGTTTGGTGTTTGATCACGCGGTGGTGCGGAGTCACCTAGTGCAG”, the binding signal was 20800 fluorescence intensity (a.u.).
On to “ATCTTCTTCTTCATCGCTGTGCAGCTACACACTCTCACTGCGGAGTCACCTAGTGCAG”, for which the binding signal was 10000 fluorescence intensity (a.u.).
For “GCCGCCCGCCGCCCCTGCCTGCCCAATCCGCCTGTCTCTCCGGAGTCACCTAGTGCAG”, the binding signal is 8270 fluorescence intensity (a.u.).
As to “TCCCCGTCTTTTCCTTCCGCCTCACCAACCTCGTCTCGTCCGGAGTCACCTAGTGCAG”, the binding signal was 9830 fluorescence intensity (a.u.).
In the case of “GGTGATGAACTCTTGCCTCTTTGACCAGCCTTGATTTTCCCGGAGTCACCTAGTGCAG”, the binding signal was 9270 fluorescence intensity (a.u.).
For “CTTCTCTCTCCCTTTTATAATAGTTGTTTTGATTTTTTTACGGAGTCACCTAGTGCAG” the value was 8840 fluorescence intensity (a.u.); for “TGGTGTTATATATTTTTTTTAAAAAAGTCAACATGTATTTCGGAGTCACCTAGTGCAG”, 8880 fluorescence intensity (a.u.); for “GACCCGAACTTCTTCCCATTGTGGAATTTGCAATCTTTTTCGGAGTCACCTAGTGCAG”, 8900 fluorescence intensity (a.u.).
As to “TTCATATATATGCCTGTCTCGGATTAAAGTTTTGCTCGTCCGGAGTCACCTAGTGCAG”, the binding signal was 8240 fluorescence intensity (a.u.).
For “TCTTACATGGTTCATTACATTTCCACTTGTACCAGATATGCGGAGTCACCTAGTGCAG”, the binding signal is 9140 fluorescence intensity (a.u.).
As for “TCTTTTCGCGAATTAAATACACATTTCTTTTTTTTTTTCACGGAGTCACCTAGTGCAG”, the binding signal was 8590 fluorescence intensity (a.u.).
Regarding “CTAGTTAAAGTTTGATTTGTTATTTTCGTTACAACTTGTACGGAGTCACCTAGTGCAG”, the binding signal was 8240 fluorescence intensity (a.u.).
Turning to “CGGTTTCACTTTCACGTCGTCTCGTACTAACTTCTGTATCCGGAGTCACCTAGTGCAG”, the binding signal was 12700 fluorescence intensity (a.u.).
For “TTAAATTTTGCTTCATGTGTCACATCAATGCTACGTTTTTCGGAGTCACCTAGTGCAG” the value was 10300 fluorescence intensity (a.u.); for “TAAATGTTTAACGTCGTTGACTTTTTTAAACATGTATGACCGGAGTCACCTAGTGCAG”, 19200 fluorescence intensity (a.u.); for “TCCAATCTAATGGCTTCCTCTCTTCTCTGCGCCTCGCCGCCGGAGTCACCTAGTGCAG”, 9630 fluorescence intensity (a.u.).
As for “TCCTCGGATGATTTGCGTCCGTCCGTTTGTTCACGCTCTACGGAGTCACCTAGTGCAG”, the binding signal is 13200 fluorescence intensity (a.u.).
Turning to “AACTTGAATGCTACTCTTATATCTTTATATGTCGACTCACCGGAGTCACCTAGTGCAG”, the binding signal is 9230 fluorescence intensity (a.u.).
To “TGAATCCCATAGTTTTCACTGCTTTACTGATACTGATGCTCGGAGTCACCTAGTGCAG” belongs 9470 fluorescence intensity (a.u.); to “TAGAGAAGTTTTCGGGGTTTTTATTTCTCTTTTTTTTTTCCGGAGTCACCTAGTGCAG”, 8150 fluorescence intensity (a.u.).
With “ATCCTGTCCCCGGTCTTATCTCCACTTGGACACACCCCGACGGAGTCACCTAGTGCAG”, the binding signal was 8890 fluorescence intensity (a.u.).
For “ATCCACCGCTTCTCAGCCTCTTCCACATACATCCATCCTGCGGAGTCACCTAGTGCAG” the value was 9770 fluorescence intensity (a.u.); for “GTGGGAGGGGAGCCCATCAAGATCATTGACTTGACTTGACCGGAGTCACCTAGTGCAG”, 8940 fluorescence intensity (a.u.); for “CACTCGCCCATCTCTCTCTCCCGCCGCTCTCTCCCTCTCCCGGAGTCACCTAGTGCAG”, 9210 fluorescence intensity (a.u.).
Turning to “GAGTCTTGCACTCTTGCTTCCATTTGCTTCGCACATGTTTCGGAGTCACCTAGTGCAG”, the binding signal was 8120 fluorescence intensity (a.u.).
Take “CACTGTTTTTATTTCTTTTCTTTTATCTTCTTAAAATATCCGGAGTCACCTAGTGCAG”: the binding signal is 10400 fluorescence intensity (a.u.).
Turning to “CCCGTCTCCTCGCCTGCCGATCTCCATCCTGCTAGCAGAGCGGAGTCACCTAGTGCAG”, the binding signal was 8930 fluorescence intensity (a.u.).
For “CCATCTCGCTCGCTCACTCATGTCACTCGTCAGCCACTTCCGGAGTCACCTAGTGCAG” the value was 11000 fluorescence intensity (a.u.); for “AGAACTTTCCGGCCAATTTTTTTATACCCTCCTGATCAGTCGGAGTCACCTAGTGCAG”, 8500 fluorescence intensity (a.u.).
For “ATACCATGATCACGAGGTATTCATTTCATGTAACAATTTTCGGAGTCACCTAGTGCAG” the value was 8100 fluorescence intensity (a.u.); for “TAATCTTGCCATGATTTTTATACCCATGCACTTCCTTTCCCGGAGTCACCTAGTGCAG”, 8410 fluorescence intensity (a.u.); for “TGTTTTGGACTTTTTGGTCAACGGCCCATCAAAGCAAGCCCGGAGTCACCTAGTGCAG”, 13000 fluorescence intensity (a.u.).
For “CAGTTTGACCTCTTCCACTTGTTGTTTCACCTGATCAGCTCGGAGTCACCTAGTGCAG” the value was 9130 fluorescence intensity (a.u.).
As for “CTGTCTCGGTCCCCGTCTACGTCGTCTCTCGCATTTTTCCCGGAGTCACCTAGTGCAG”, the binding signal was 10800 fluorescence intensity (a.u.).
As for “CAACATATGCCCCGGCCCATTTACACCGCCCCGCGATAAACGGAGTCACCTAGTGCAG”, the binding signal was 8440 fluorescence intensity (a.u.).
Regarding “GTTCTTCTTCTTCTTCTTCTTTTTTTCGTCCAAGGCCACTCGGAGTCACCTAGTGCAG”, the binding signal was 8280 fluorescence intensity (a.u.).
As for “CGGCGACCGCGATGGTGGGGAAGCGGGTGGGGAAATGGGACGGAGTCACCTAGTGCAG”, the binding signal was 8180 fluorescence intensity (a.u.).
With “TACCGCGTCTCTTTCCCTTTCATCTCTGGTTTTTGCAGATCGGAGTCACCTAGTGCAG”, the binding signal was 9840 fluorescence intensity (a.u.).
In the case of “ATGCATCCACATCTTGCTACTGCGATTCGATAGCCGGTGACGGAGTCACCTAGTGCAG”, the binding signal is 14500 fluorescence intensity (a.u.).
As for “ACCACCACCACCACCACCATCCCCGGAAAAAATCTTTTTCCGGAGTCACCTAGTGCAG”, the binding signal is 10900 fluorescence intensity (a.u.).
“ATGATGACATCAATGGTGGGTTTTGCATGGAATCTATACACGGAGTCACCTAGTGCAG”: the binding signal was 11900 fluorescence intensity (a.u.).
Regarding “AATTGATCTGAACTTTGCTTTCATCGTTGCTCAGTTAACCCGGAGTCACCTAGTGCAG”, the binding signal is 8220 fluorescence intensity (a.u.).
On to “GACATATTTTTTTCTCCTCTCTTTTTTCATTTGTTTTTTTCGGAGTCACCTAGTGCAG”, for which the binding signal was 11600 fluorescence intensity (a.u.).
As to “CTAATCTTGCTAGCTAGTACCGTACCCAAATCACGGAGATCGGAGTCACCTAGTGCAG”, the binding signal was 8260 fluorescence intensity (a.u.).
To “AGGGTGGGCCAATTAGTTGCGTCGAAGCAAAGATTTTTTTCGGAGTCACCTAGTGCAG” belongs 8920 fluorescence intensity (a.u.); to “CCTAGCATCCGCGCCGCCCATACACCCATCTTACCGATCTCGGAGTCACCTAGTGCAG”, 8330 fluorescence intensity (a.u.).
On to “TCGCCAACTACTTATTTTGCAATTCCTTTTTAGCCAAAACCGGAGTCACCTAGTGCAG”, for which the binding signal was 10800 fluorescence intensity (a.u.).
